Results deposited as PubChem BioAssay AID1671195 (Yale University, 2021).

Purpose: 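Knockdowns that increase or decrease uptake of fluorescent LDL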 (primary screen)
Cell system: human Huh7 hepatoma cells
Reagent: siRNA pool against human genes, 18 nM
Duration: about 2 to 2.5 days of knockdown, then 8 h LDL uptake
Challenge: DiI-labelled LDL at 30 µg/ml for 8 h, in lipoprotein-deficient serum medium
Read-out: 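Per-cell DiI-LDL intensity by automated imaging; well means scaled to the plate median and given as a robust z-score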
Scale: robust z-score: higher = more LDL uptake after knockdown
Call rule: 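Active when two or more replicates show a robust z-score above 2 or below -2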
The whole screen tested about 22,000 reagents; this is a random part of them. Of all reagents, about 1,510 (6.9%) got an active call. 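Active includes knockdowns raising or lowering LDL uptake; positive z-scores mean more uptake, negative mean less.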 Entries without a mark were called inactive. Reagents against one gene are numbered here.

gene	reagent	robust z-score, replicate 1	robust z-score, replicate 2	robust z-score, replicate 3
EWSR1	1	3.39 (active)	3.96	3.58
TPD52L3	1	-0.233	0.0897	-0.364
C22orf42	1	0.715	-0.139	1.13
BCL2L1	1	-0.292	-0.462	-1.2
COX5B	1	0.162	0.142	0.194
OSBPL2	1	0.018	0.329	0.0448
OSBPL2	2	-1.66	-1.96	-1.79
LOC442129 (retired record)	1	-0.176	0.292	-0.161
USP48	1	-0.38	-0.502	-0.455
AGTPBP1	1	-0.87	-0.83	-0.533
MRPL38	1	-0.726	-1.31	-1.04
PIP4P1	1	2.62 (active)	2.86	3.64
C10orf95	1	-0.774	-1.11	-1.26
ADM	1	-0.743	-0.285	-1.28
FHOD3	1	-0.00138	-0.14	-0.28
FGF8	1	0.169	-0.771	-0.0277
GPR31	1	1.53	0.22	1.08
LINC00927	1	-1.53	-1.52	-1.64
LTF	1	0.25	0.671	0.505
RWDD3	1	0.552	0.697	0.0225
PPP2R2C	1	0.0261	-0.611	-0.0766
LOC389991 (retired record)	1	-0.755	-0.965	-1.33
LOC388169 (retired record)	1	-0.125	-0.193	0.193
IRF2BP1	1	2.19	0.96	0.202
GFPT2	1	0.544	-0.0261	0.034
CKAP2L	1	-0.363	-1.03	0.0805
CEP135	1	2.24	0.112	0.706
IDUA	1	-0.0732	-0.189	0.039
MRS2	1	0.0919	0.0137	0.397
LOC389202 (retired record)	1	-0.492	-0.32	-0.526
ZDHHC13	1	-0.384	-0.949	0.23
EDDM3B	1	0.442	-0.211	2.09
BCL6B	1	-0.403	-0.368	-0.449
CDKN1C	1	-2.09 (active)	-1.94	-0.587
SCUBE1	1	0.259	0.395	-0.404
NBPF4	1	0.0852	-0.27	-0.00584
PCDHA3	1	2.32 (active)	2.03	2
OR51V1	1	-0.89	-1.24	-1.24
TOE1	1	1.09	0.615	0.485
CNBD1	1	-0.52	0.338	-0.569
LOC286327 (retired record)	1	-0.981	-0.968	-0.986
GC	1	-0.134	-0.209	0.0738
LRIG2	1	0.0453	0.454	-1.04
SPCS3	1	-1.49	-1.27	-1.4
LOC440964 (retired record)	1	-1.7	-1.62	-1.22
KLHDC9	1	0.729	0.454	0.575
FOXI1	1	-0.233	-0.35	-0.264
OR2M7	1	0.211	1.12	1.27
MAPRE2	1	-0.00343	0.869	0.777
ATG3	1	0.734	0.457	0.99
LOC441074 (retired record)	1	-0.197	-0.789	-0.87
MROCKI	1	0.734	0.591	1.1
XPNPEP3	1	0.795	0.919	0.806
SETD2	1	0.201	-0.528	-0.232
MIXL1	1	0.585	-0.106	0.288
RAB3IP	1	0.348	1.29	0.663
MACROD1	1	-1.89	0.579	0.114
COASY	1	-0.0612	-0.471	0.835
LOC399898 (retired record)	1	2.18 (active)	2.12	2.13
DUX1	1	1.61	0.743	0.55
HEMK2	1	-0.859	-0.302	-1.26
CD300LB	1	-1.33	-1.18	-0.569
NRDC	1	-0.665	-0.155	-0.245
DNAJC24	1	0.162	-0.0772	0.164
HHIPL1	1	-0.527	-0.521	-0.614
CHRNA3	1	-0.977	-0.879	-0.662
AOC3	1	0.576	0.701	1.28
LOC401478	1	-0.549	0.0921	0.524
ZNF808	1	-0.545	-0.00217	-0.411
IGF2BP2	1	0.653	-0.325	-0.31
GATAD2A	1	0.506	0.614	-0.152
PNMA3	1	-0.839	-1.6	-0.711
C22orf23	1	0.0204	0.356	-0.08
FUS	1	1.91 (active)	2.34	2.12
LOC442154 (retired record)	1	-0.679	-0.868	-0.946
GPA33	1	1.1	0.488	0.947
VSTM5	1	0.413	0.917	1.34
CPNE8	1	1.75	1.53	0.93
LOC442643 (retired record)	1	-1.05	-1.3	-1.73
SYNGR1	1	-1.35	-1.03	-1.39
OR4A16	1	-1.68	-2.02	-1.76
TMEM181	1	-0.929	-1.3	-1.74
OXA1L	1	-0.405	-0.287	-0.186
GTF2I	1	0.185	0.595	1.15
CLDN10	1	2.11	1.4	1.44
SPMIP9	1	-0.966	-1.46	-1.05
ZNF763	1	0.365	0.494	0.361

Reprinted from the listing for reference:
gene	reagent	robust z-score, replicate 1	robust z-score, replicate 2	robust z-score, replicate 3
GC	1	-0.134	-0.209	0.0738
LRIG2	1	0.0453	0.454	-1.04
SPCS3	1	-1.49	-1.27	-1.4
LOC440964 (retired record)	1	-1.7	-1.62	-1.22
KLHDC9	1	0.729	0.454	0.575
